# Measurements reported in PubChem BioAssay AID504786 (Drosophila RNAi Screening Center, 2011).
# Purpose: 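Fly genes required for HIF-dependent transcription when hypoxia is mimicked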 (primary screen)
# System: Drosophila S2 cells with a stable HIF luciferase reporter
# Reagent: long dsRNA against Drosophila genes, about 0.2 µg dsRNA per well of a 384-well plate
# Time to read-out: three days of knock-down, then 20 h of DFO before reading
# Treatment: desferrioxamine (DFO) at 100 µM, an iron chelator that mimics hypoxia, for 20 h
# Measured: 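Firefly luciferase driven by the mouse ldh-a hypoxia-response element, measured after 20 h of 100 µM DFO; z-scores per plate, higher means more signal lost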
# Direction: z-score: higher = stronger loss of HIF reporter signal
# In all, the deposit lists about 21,000 reagents; shown is an unselected part of those that have a named target and a result. 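Primary screen; positive scores mean lost reporter signal, so the sign may be inverted from the usual convention.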 Reagents against one gene are numbered here. No sequences are given here.
Gene,reagent,"z-score, replicate 1","z-score, replicate 2","z-score, replicate 3","z-score, replicate 4"
CG14985 (GeneID 38470),1,-0.2,-0.2,,
CG14985 (GeneID 38470),2,-0.4,-0.4,,
Adck5 (GeneID 39260),1,-0.3,0.5,,
MED27 (GeneID 40696),1,0,-0.2,,
ey (GeneID 43812),1,-0.4,-0.4,,
D1 (GeneID 41095),1,-0.3,-0.2,,
CG42699 (GeneID 31507),1,-0.3,-0.2,,
CG42699 (GeneID 31507),2,-0.2,-0.1,,
Fas3 (GeneID 35097),1,0.1,0.3,,
Fas3 (GeneID 35097),2,-0.1,-0.2,,
CG7889 (GeneID 32916),1,-0.4,-0.4,,
CAH6 (GeneID 43701),1,-0.2,-0.1,,
CG16890 (GeneID 34781),1,-0.3,0,,
CG13193 (GeneID 36256),1,-0.4,-0.6,,
CG7548 (GeneID 38843),1,-0.2,0,,
GstT4 (GeneID 32299),1,-0.4,-0.4,,
CG11113 (GeneID 35659),1,-0.2,-0.4,,
SmydA-9 (GeneID 31859),1,-0.2,0.1,,
SelR (GeneID 41309),1,-0.4,-0.8,,
CG3552 (GeneID 39097),1,-0.3,-0.2,,
Josd (GeneID 31560),1,-0.2,-0.6,,
CG15464 (retired record) (GeneID 31436),1,-0.3,-0.5,0.1,-0.4
Ephrin (GeneID 43799),1,-0.3,-0.6,,
PIG-Q (GeneID 117366),1,-0.3,-0.1,,
kkv (GeneID 45884),1,-0.4,-0.5,,
ckn (GeneID 36673),1,-0.2,-0.3,,
RpS6 (GeneID 31700),1,7.4,4.1,,
CG14478 (GeneID 36964),1,-0.3,0.9,,
CG2604 (GeneID 40623),1,-0.4,-0.3,,
CG13074 (GeneID 39760),1,-0.3,-0.2,,
myo (GeneID 43811),1,-0.2,0,,
CG9961 (GeneID 33459),1,-0.2,-0.2,,
Galphaq (GeneID 36384),1,-0.4,-0.6,,
ND-B12 (GeneID 37466),1,0.1,-0.2,,
l(2)k05819 (GeneID 33644),1,-0.3,-0.5,,
grnd (GeneID 35103),1,-0.2,0.2,,
acj6 (GeneID 47080),1,-0.2,-0.5,,
ProtA (GeneID 34866),1,-0.3,-0.2,,
CG11349 (GeneID 38552),1,-0.2,-0.3,,
CRMP (GeneID 40675),1,0.5,-0.2,,
CRMP (GeneID 40675),2,-0.3,-0.3,,
baz (GeneID 32703),1,-0.5,-1,,
CG5177 (GeneID 34017),1,-0.2,-0.1,,
ox (GeneID 45401),1,0.9,1.9,,
Bap111 (GeneID 31846),1,-0.3,-0.4,2.9,2.2
Mpv17 (GeneID 43831),1,-0.4,1.4,,
uri (GeneID 37924),1,-0.3,-0.4,,
CG4440 (GeneID 50458),1,0.1,0.7,,
shf (GeneID 31617),1,-0.4,-0.4,,
CG15890 (GeneID 32401),1,-0.1,0,,
Ir60e (GeneID 37917),1,-0.2,0,,
Dhc36C (GeneID 35061),1,-0.2,-0.4,,
cdi (GeneID 42289),1,-0.2,-0.2,,
CG9747 (GeneID 43591),1,-0.3,0.8,-0.3,0.4
defl (GeneID 39141),1,2,1.3,,
CG9166 (GeneID 38161),1,0,0.6,,

Ordered by “z-score, replicate 1” (ascending): some entries from above.
Gene,reagent,"z-score, replicate 1","z-score, replicate 2","z-score, replicate 3","z-score, replicate 4"
SelR (GeneID 41309),1,-0.4,-0.8,,
CG3552 (GeneID 39097),1,-0.3,-0.2,,
Josd (GeneID 31560),1,-0.2,-0.6,,
